Most values lie at the floor of the assay. Slopes are relative: functional sequences can read slightly below zero.
test system: Saccharomyces cerevisiae PS128 hsf1 delta, HSF1(1-493) fusion; assay: growth estimate (transactivation domain function in HSF1 fusion, heat-shock survival) (a.u. (slope of normalised read count over time)); higher = stronger growth at 37°C, i.e. more transactivation activity; settings: library: random library
Procedure: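 Random 60-nt DNA library encoding peptides of up to 20 aa, fused to the C-terminus of yeast HSF1 residues 1-493 (C-terminal TAD deleted) and expressed from the native HSF1 promoter on a CEN plasmid in hsf1-deleted S. cerevisiae PS128. Cells were selected at 37°C on -trp 5-FOA plates for 0, 2, 4, 6 and 8 days and amplicons were sequenced. Growth estimate is the slope of a robust linear fit of total-sum-normalised read counts (normalised to the first time point) over time, using at least 2 replicates. Sequences are classed functional (TAD activity) above a threshold of -0.13, set from stop-codon control sequences.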

Substance | growth estimate
DSGT | 0.0827
ANGPNHYQSTNERTSNVYDV | < -0.25
IPQ | < -0.25
WTLYKIASELSRSSTQQNKG | < -0.25
PRTTHE | < -0.25
FVSQASFVRAGSPGSG | < -0.25
VMC | < -0.25
ESSRDFGAVLHYPRYPPGEL | -0.25
TGGAEIGPAMNVCVCVPVGS | < -0.25
NSGIEESSRET | < -0.25
EGNCLIKSVCNNYRKSGLRC | < -0.25
RPIQCCTHII | -0.179
HRGGLASTT | < -0.25
RGATVSQHYSSSNF | < -0.25
HRSRPLRVRNCFKIIAMHMG | < -0.25
TLSGIVTGLF | < -0.25
GRLQL | < -0.25
KKLTRQQYRGRYSCHEGTIH | < -0.25
RKEYP | < -0.25
TYVKGLVTRLTGTGRYTNAK | < -0.25
GSGSLWLTSFANVGRIESGY | < -0.25
LCTQDTRYWILSLMRWSDRF | < -0.25
SRG | < -0.25
ANGAPK | < -0.25
YEHPGRKSFLKRQGITYPET | -0.246

Substance | growth estimate
EHVGNAG | < -0.25
ERQAISTLLCLAGTGIPHGY | < -0.25
GPYLVFL | < -0.25
PSREHQYKSPISNGRGTPER | < -0.25
WGLALALHREIMIQQAIRGQ | < -0.25
RGTHRLSKHGNVKPLRAGCI | -0.158
TCHLGHSNNFFQAS | < -0.25
HFMNAVNRSDGPGP | < -0.25
VSTIFFPWTAKIVASANPLK | < -0.25
TGNRPASH | < -0.25
SRRLGDPWRLGLFLVICYGA | < -0.25
SCAVIGKGNHYLCGQGLVHT | < -0.25
AGLGHLRGNPYMVEEVGSPR | < -0.25
TIANDRCECT | < -0.25
LHGKKGYLSIPLSHLHLYSV | < -0.25
RRSNY | < -0.25
RLALCGSDLCFLLDSLQKSH | < -0.25
SGSRSPRLRFIMVYK | < -0.25
DREMSLRPLTSIMASVSP | < -0.25
YATAPEKSFPDETPNVTRNS | < -0.25
NLRYPE | < -0.25
LGINVWDS | < -0.25
QVPLSLRIA | < -0.25
HRDNDAWAQPELSWILEGLT | 0.236
LAQIGQ | < -0.25

Substance | growth estimate
LGFASLMQKGWSMLLCSILV | < -0.25
HMLQKA | < -0.25
TSAIKVRTERQGAALETTMN | < -0.25
CLPHTRAQ | < -0.25
NTFVV | < -0.25
VTTPATG | < -0.25
VWCPSAVGETGRLGTKLLLG | < -0.25
LRTVSEGRGTVRFDTWGRHR | < -0.25
RKYYV | < -0.25
MLTDTGDVSDPNRPHVKPQR | < -0.25
LGCLVVSCPCSQGSGHLARV | < -0.25
RSCLEVRVTGHGTRLSVDSA | < -0.25
QCRNASGCR | < -0.25
CVSLAYFEVFMRHPWHGVPD | < -0.25
RERFQVMG | < -0.25
PCGGNVGLDCGTVRGRNS | < -0.25
KQQLRYDSPAL | < -0.25
DFYDTKSLLIPLILKDRLLS | < -0.25
VYIEEPPLLASQAGARDLGF | < -0.25
ATCDSNTKGGGLRPTAPLAQ | < -0.25
FSLMVRLWFERPIMQSVPHV | < -0.25
LNPTSQMSVVQRRSRLSIIL | < -0.25
DRVLSSLSTELL | -0.248
HSKRLSPG | < -0.25
STKGCRQLHSKCEFAQPTQG | < -0.25

Substance | growth estimate
EAGCSPTRSLWGR | < -0.25
GGILMKTSHDQQFNSSAGPH | < -0.25
LQPAR | < -0.25
HTRRENNGHLLPAP | < -0.25
NRTNR | < -0.25
LDRAHRILHVVAPHSAKKGV | < -0.25
YAKWRHTCQSSGVCHNLRCQ | < -0.25
IPDT | < -0.25
AFQR | < -0.25
RLGRGALLFLISGHENKLRQ | < -0.25
SPRFCCEACTRYRDCYLCVG | < -0.25
DMSSLPNQENAGVAPDLTAL | < -0.25
LVSVSFVF | < -0.25
GFFFRSASDASPDPSARVFT | 0.0944
MRVRTQPRERQHHEPVLDSA | < -0.25
GRYMLVVR | < -0.25
PRASKRGGRQLHGARTN | < -0.25
TRTPCLN | < -0.25
VKDATVQILGIMQ | < -0.25
VDP | < -0.25
LKGTSSGPLR | < -0.25
STIPAFGLWRTSRGRALMSS | < -0.25
KEIGSQFLDEAQVGFPPGVA | < -0.25
DWAVAKEKEP | < -0.25
SHSKPSLSSILDPVAR | < -0.25

4 successive records from above:
Substance | growth estimate
PRASKRGGRQLHGARTN | < -0.25
TRTPCLN | < -0.25
VKDATVQILGIMQ | < -0.25
VDP | < -0.25

Seven entries picked at random from those above, as already listed:
Substance | growth estimate
IPQ | < -0.25
HRGGLASTT | < -0.25
LVSVSFVF | < -0.25
KQQLRYDSPAL | < -0.25
PRTTHE | < -0.25
RLALCGSDLCFLLDSLQKSH | < -0.25
LHGKKGYLSIPLSHLHLYSV | < -0.25

(continued)

Substance | growth estimate
FISDKRIAPWGVTAGDHFRQ | < -0.25
TGAGFNRSRGGSSWDLVEAR | < -0.25
FNQADCTEL | < -0.25
IEVRV | < -0.25
TGLARRL | < -0.25
SQPSVKSAGPMFMQ | < -0.25
IPPGKHPINMAKHSGGLCSR | < -0.25
LGLCSMWSTFTFGIPNFSSH | < -0.25
TSAPEIKSGLAATQADRCSC | < -0.25
IAKGIKGRTGSL | < -0.25
VCGVK | < -0.25
LPHLGDEVVVVSSGG | < -0.25
LWYTAELR | < -0.25
CQFCSNCK | < -0.25
SLVIDNPWSVQRFYRPIHLE | < -0.25
DSKTIEGTARVGGVEA | < -0.25
HECVSHSSGARNPRIRSDLP | < -0.25
KRILEPG | < -0.25
CWESPCA | < -0.25
GSRPREARSSAGCGL | < -0.25
CTVTCCAHAQ | < -0.25
LYPASRSSAEPGLYKTSLFM | < -0.25
VLSASLNCYTAPSRGRSTFA | < -0.25
VRVCLSEIRRIFSDTHTWQG | < -0.25
QDSIRIGGPSSHVLTASYEH | < -0.25

Substance | growth estimate
QRNCIVSYRSHRPIQ | < -0.25
TVKCPESQRVAIETQVPYAG | < -0.25
CLKSPLQRG | < -0.25
SRQLGPH | < -0.25
LVGQRLVLYPVGHVRYLDTG | < -0.25
NTCSGSLGPTP | < -0.25
GGWPLTSGSQ | < -0.25
DKVQCRVRLDYYPYSRLSEL | < -0.25
NCHSLHVLVHLRRRQEVAPG | < -0.25
PQGVIVFREDL | < -0.25
CYGVLQRRSIAYAES | < -0.25
PVRCGFWLFTFGKVSMAA | < -0.25
GLNRKLCWGVHRCVLNNFPA | < -0.25
IYRWSSFVP | < -0.25
YRRQIE | < -0.25
CGKKNPGRSFSVALGVPGRA | < -0.25
TIGLAGLMHMVEEGHISWKG | < -0.25
SLITG | < -0.25
TACLR | < -0.25
VALP | -0.248
TTLDPAEGQRDTRNYVSFGC | < -0.25
TTVLSTRERRRFTAELSSVN | < -0.25

Source: the supplement of paper PMC5949888
